Data published in patent US20240173273A1 (priority 2021, published 2024).

Assays:
[1] = tested on: Vero E6 cells
[2] = tested on: SARS-COV-2; format: cell-based

## CC(C)(CO)[C@@H](O)C(=O)NCCC(=O)NCCSSCCNC(=O)CCNC(=O)[C@H](O)C(C)(C)CO [pantethine, (2R,2′ R)—N,N′-(3,12-Dioxo-7,8-dithia-4,11-diazatetradecane-1,14-diyl)bis(2,4-dihydroxy-3,3-dimethylbutanamide)]
[1]
  toxic effect on Vero cells (viability): no significant toxic effect
[2]
  relative expression of N and NSP6 genes in the supernatants of infected cells: reduce significantly
